Reference: paper PMC8391706
These are yes or no findings as the source states them, for the method shown. Binding seen in cells or lysates may run through a third protein. Binding can be weak; no strength is given.

By UniProt entry, the sequences of proteins in these tests, tags left out. Where a name states a change or a piece, a line headed by the entry shows the natural chain unless it says otherwise.
UniProt P14618: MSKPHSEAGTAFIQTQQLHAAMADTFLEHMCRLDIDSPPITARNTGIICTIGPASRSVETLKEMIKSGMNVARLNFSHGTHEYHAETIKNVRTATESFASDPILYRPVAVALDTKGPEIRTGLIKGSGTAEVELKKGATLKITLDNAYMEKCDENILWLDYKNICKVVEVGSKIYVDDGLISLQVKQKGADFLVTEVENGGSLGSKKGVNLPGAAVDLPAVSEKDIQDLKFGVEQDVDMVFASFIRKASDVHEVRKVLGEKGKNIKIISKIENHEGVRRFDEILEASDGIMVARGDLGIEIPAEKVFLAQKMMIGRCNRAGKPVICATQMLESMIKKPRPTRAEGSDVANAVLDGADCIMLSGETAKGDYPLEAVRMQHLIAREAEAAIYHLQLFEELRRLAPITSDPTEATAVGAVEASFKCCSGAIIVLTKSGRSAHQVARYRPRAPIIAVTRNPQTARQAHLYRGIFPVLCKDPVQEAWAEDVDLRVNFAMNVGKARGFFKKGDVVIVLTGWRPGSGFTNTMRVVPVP

target: T1, endogenous PSAT1 (phosphoserine aminotransferase 1) (human (endogenous in HEK293T, A549, PC9)) (UniProt Q9Y617); assay: co-IP; HEK293T transfected with FLAG-PKM2 WT or mutants (MT1-4); endogenous PSAT1 precipitated with anti-PSAT1 from 1 mg lysate (Protein G Dynabeads); immunoblot
T1 sequence: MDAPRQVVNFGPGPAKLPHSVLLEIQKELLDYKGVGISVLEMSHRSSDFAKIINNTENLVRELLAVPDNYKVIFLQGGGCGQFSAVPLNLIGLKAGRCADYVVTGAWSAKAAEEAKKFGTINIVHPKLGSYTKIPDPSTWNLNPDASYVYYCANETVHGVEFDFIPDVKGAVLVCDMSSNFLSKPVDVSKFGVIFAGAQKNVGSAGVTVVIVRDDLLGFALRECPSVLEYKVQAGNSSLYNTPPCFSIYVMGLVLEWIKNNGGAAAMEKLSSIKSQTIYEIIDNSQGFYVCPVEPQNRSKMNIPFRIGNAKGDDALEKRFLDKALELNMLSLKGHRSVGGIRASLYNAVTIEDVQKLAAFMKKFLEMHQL

binding, binds:
FLAG-PKM2 mutant MT4 (from UniProt P14618) (enzyme)
FLAG-PKM2 mutant MT1 (from UniProt P14618) (enzyme)
FLAG-PKM2 mutant MT2 (from UniProt P14618) (enzyme)
